From article PMC8072890 (Pharmaceuticals, 2021)

Assay: general procedure: peptide synthesis; PyBOP/DIPEA
Details: late stage modification step

Substance	step yield [%]	final HPLC purity (260 nm) [%]	final HPLC purity (270 nm) [%]
Eremomycin N-(2-((2,3,4,5,6-pentafluorobenzyl)amino)ethyl)amide	63	96.6	
Eremomycin N-(2-((2,4-dichlorobenzyl)amino)ethyl)amide	61	97.1	
Eremomycin N-(2-((2,6-difluorobenzyl)amino)ethyl)amide	48	95.4	
Eremomycin N-(2-((2-chloro-4-fluorobenzyl)amino)ethyl)amide	45	97.3	
Eremomycin N-(2-((2-fluorobenzyl)amino)ethyl)amide	54	97.6	
Eremomycin N-(2-((2-fluorobenzyl)amino)propyl)amide	58	98.1	
Eremomycin N-(2-((3,4-dichlorobenzyl)amino)ethyl)amide	48	95.7	
Eremomycin N-(2-((3,5-difluorobenzyl)amino)ethyl)amide	49	95.3	
Eremomycin N-(2-((3-fluorobenzyl)amino)ethyl)amide	52	96.4	
Eremomycin N-(2-((4-chlorobenzyl)amino)ethyl)amide	50	95.6	
Eremomycin N-(2-((4-fluorobenzyl)amino)ethyl)amide	57		96.7
Eremomycin N-(2-((4-methoxybenzyl)amino)ethyl)amide	60	97.2	
Eremomycin N-(2-((4-methylbenzyl)amino)ethyl)amide	44	96.7	
Eremomycin N-(2-((4-trifluoromethylbenzyl)amino)ethyl)amide	52	95.2	
Eremomycin N-(2-(benzylamino)ethyl)amide	47	96.9	
Eremomycin N-(2-phenethylamino)ethyl)amide	48	95.4	
